Results: PubChem BioAssay AID1671190 (National Center for Advancing Translational Sciences (NCATS), 2021)
Screen size: about 580,000 compounds; about 6,100 (1.1%) were called active. The inconclusive results got no clear call from the source; some entries with a clear call stand among them for comparison. Calls come from the whole dose curve; as a rule, active = well fitted inhibition curve with a large enough effect; inconclusive = small, poorly fitted or top-dose-only effect, or another doubt; inactive = no such curve, though single readings can be large or run the other way. Potencies beside an inconclusive call are fits to weak or partial responses and may not hold up.

Protein sequences, listed by entry. Tags and fused reporters are not part of them. Lines headed by an entry give the natural chain unless they say otherwise; changes in a name come on top.
UniProt P18054: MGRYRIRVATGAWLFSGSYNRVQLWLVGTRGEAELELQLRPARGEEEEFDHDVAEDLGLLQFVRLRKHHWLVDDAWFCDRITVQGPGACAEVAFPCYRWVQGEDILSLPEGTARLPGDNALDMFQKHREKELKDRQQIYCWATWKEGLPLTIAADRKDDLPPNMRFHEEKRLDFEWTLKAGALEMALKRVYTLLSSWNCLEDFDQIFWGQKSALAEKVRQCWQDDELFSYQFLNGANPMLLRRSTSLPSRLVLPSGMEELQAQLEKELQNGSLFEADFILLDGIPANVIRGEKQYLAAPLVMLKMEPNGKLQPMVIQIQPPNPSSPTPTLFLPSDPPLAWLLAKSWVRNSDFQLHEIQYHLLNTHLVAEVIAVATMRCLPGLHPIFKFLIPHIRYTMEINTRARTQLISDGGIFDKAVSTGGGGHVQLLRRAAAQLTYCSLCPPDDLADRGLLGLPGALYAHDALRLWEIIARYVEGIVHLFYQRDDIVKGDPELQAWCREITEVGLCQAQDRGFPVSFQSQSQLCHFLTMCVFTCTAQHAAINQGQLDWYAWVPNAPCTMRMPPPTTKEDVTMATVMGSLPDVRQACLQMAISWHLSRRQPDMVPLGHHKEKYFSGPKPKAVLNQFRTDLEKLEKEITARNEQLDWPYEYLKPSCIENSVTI

What follows are compounds tested against Polyunsaturated fatty acid lipoxygenase ALOX12 (Homo sapiens) (UniProt P18054) (assay: Primary qHTS assay for inhibitors of human arachidonate 12S-lipoxygenase (ALOX12): Round 2). Conditions: purified 12hLO, xylenol orange hydroperoxide absorbance; activity change, negative = inhibition: at 108 µM (top of the series) unless noted.
How it was run: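 Purified human 12hLO (150 nM final) in 25 mM Hepes, 0.01% Triton X-100, pH 7.0 was preincubated 15 min at room temperature with compound. Then 40 uM arachidonic acid was added, 30 min. Hydroperoxide was read by Fe-XO absorbance ratio 573/405 nm.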
% is set by controls: 0 for no effect and ±100 for the full control effect; potency is the fitted concentration of half-maximal effect.

| SMILES | Potency | activity change, negative = inhibition |
| --- | --- | --- |
| COc1ccc(N2CCN(C(=O)c3c(OC)cc(=O)n4c3CCCC4)CC2)cc1 | inconclusive: 39.8 µM [inhibitor, partial curve, poor fit] | – |
| Clc1ccc(-n2ncc3c(NC4CCCCC4)ncnc32)cc1 | inconclusive: 11.2 µM [inhibitor, full curve, poor fit] | – |
| CC(=O)N1CCC2(CC1)Oc1ccc(Br)cc1C1CC(c3ccc(Cl)cc3)=NN12 (centres undefined) | inconclusive: 28.2 µM [inhibitor, single point] | – |
| Cc1nn(C)c(C)c1-c1cc(C(=O)N2C[C@@H](N(C)C)[C@H](C(C)C)C2)n(C)n1 | inactive | – |
| O=C(C1CCCC1)N1CCC2(CC1)NC(=O)N(c1ccccc1)N2 | active: 2.82 µM | – |
| O=C(COc1ccc(S(=O)(=O)NC2CCCCC2)cc1)NCCC1=CCCCC1 | inconclusive: 70.8 µM [inhibitor, partial curve, poor fit] | – |
| O=c1n(-c2ccc([N+](=O)[O-])cc2)nc2n1CCN(Cc1ccc(OC(F)(F)F)cc1)C2 | inconclusive: 17.8 µM [inhibitor, full curve] | – |
| Cc1nn(CCC#N)c(C)c1[C@@H]1C=C[C@@H](NC(=O)c2cccs2)C1 | inactive | – |
| CN(C)CCCn1ccnc1C1CCN(C(=O)C2CCCN(C)C2)CC1 (centres undefined) | inactive | – |
| CC(C)CC(=O)Nc1ccc2c(c1)oc1ccccc12 | inactive | – |
| O=[N+]([O-])c1cc(S(=O)(=O)Nc2ccc(Cl)cc2)ccc1N/N=C/c1ccccc1C(F)(F)F | inconclusive: 28.2 µM [inhibitor, partial curve] | – |
| CC(=O)c1ccc(Nc2nc(C(C)N)cs2)cc1 (centres undefined) | inactive | – |
| CN1CCN(c2ccc([N+](=O)[O-])cc2C(=O)c2ccc(Cl)cc2)CC1 | inconclusive: 50.1 µM [inhibitor, single point] | – |
| CC(C)N(c1ccccc1)c1ncnc(NCCC(=O)O)c1[N+](=O)[O-] | inconclusive: 50.1 µM [inhibitor, partial curve, poor fit] | – |
| COc1ccc(-c2oc3ccccc3c2C(=O)OCc2ccccc2)cc1 | inactive | – |
| CCOC(=O)c1c(-c2ccccc2)csc1NC(=O)C(C)NCc1ccco1 (centres undefined) | inactive | – |
| Cc1ccc(C(=O)C(C#N)C(=O)Nc2ccccc2C)s1 (centres undefined) | inactive | – |
| CCOc1c(Cl)cc(/C=N/NC(N)=S)cc1OC | inconclusive: 31.6 µM [inhibitor, partial curve] | – |
| Cc1c(C(=O)OC2CCC(C)CC2)[nH]c2c1C(=O)CCC2 (centres undefined) | inconclusive: 7.08 µM [inhibitor, partial curve, poor fit] | – |
| COc1ccc(S(=O)(=O)N(CCc2ccccc2)CC(=O)NC(C)C)cc1 | active: 31.6 µM | – |
| CC1CCCCN1CCNC(=O)c1ccc2c(=O)n(Cc3ccc(Cl)cc3)c(=S)[nH]c2c1 (centres undefined) | inconclusive: 56.2 µM [inhibitor, partial curve, poor fit] | – |
| C#CCNC(=O)c1ccc2nccn2c1 | – | inactive: 2.65% [at 12.5 µM] |

Molecules above that have a furan ring, fused or not, in the order listed:

| SMILES | Potency | activity change, negative = inhibition |
| --- | --- | --- |
| CC(C)CC(=O)Nc1ccc2c(c1)oc1ccccc12 | inactive | – |
| COc1ccc(-c2oc3ccccc3c2C(=O)OCc2ccccc2)cc1 | inactive | – |
| CCOC(=O)c1c(-c2ccccc2)csc1NC(=O)C(C)NCc1ccco1 (centres undefined) | inactive | – |

More entries follow.

| SMILES | Potency | activity change, negative = inhibition |
| --- | --- | --- |
| COC(=O)C1=NN(c2ccc(C)cc2)C2(S1)SC(C(C)=O)=C(C)N2c1ccccc1 (centres undefined) | inconclusive: 0.355 µM [inhibitor, full curve, poor fit] | – |
| Clc1ccc(-c2nc3nc4ccccc4nc3n2Cc2ccco2)cc1 | inconclusive: 20 µM [inhibitor, partial curve, poor fit] | – |
| CC(C)=CC(=O)N(Cc1cccs1)C1CC1 | inconclusive: 44.7 µM [inhibitor, partial curve, poor fit] | – |
| O=C(c1ccccc1)c1sc(Nc2ccc3c(c2)OCO3)nc1-c1ccccc1 | inconclusive: 126 µM [inhibitor, single point] | – |
| CCOc1ccccc1NC1(c2ccccc2)C(=O)c2ccccc2C1=O | inactive | – |
| CN(C)C(=O)CN1CCCN(C(=O)C2CCN(S(=O)(=O)c3ccc(F)c(Cl)c3)CC2)CC1 | inactive | – |
| Cc1cc(C)n(-c2ccc(C(=O)N3CCN(S(=O)(=O)c4ccc(Br)cc4Cl)CC3)cc2)n1 | inconclusive: 89.1 µM [inhibitor, partial curve, poor fit] | – |
| Cc1nn2c(-c3ccccc3)ccnc2c1-c1ccccc1 | inconclusive: 6.31 µM [inhibitor, full curve, poor fit] | – |
| COc1ccc(CCC(C)NCc2cc(OC)cc(OC)c2)cc1 (centres undefined) | inconclusive: 6.31 µM [inhibitor, full curve, poor fit] | – |
| Cc1ccnc(SCC(=O)N2CCN(c3ccccc3)CC2)n1 | inconclusive: 31.6 µM [inhibitor, single point] | – |
| N#CCCn1cnc2c(=S)nc[nH]c21 | inconclusive: 2 µM [inhibitor, full curve, poor fit] | – |
| COC(=O)c1ccc(C2CC(=O)Nc3c2cc(Br)c2ccccc32)cc1 (centres undefined) | inactive | – |
| COC(=O)C1=C(C)NC(=O)NC1c1c(O)ccc2ccccc12 (centres undefined) | inconclusive: 50.1 µM [inhibitor, partial curve, poor fit] | – |
| CCCNC(=O)NC(=O)CSC1=Nc2ccccc2CS1 | inactive | – |
| CCOc1ccccc1-c1cc(C(=O)O)c2ccccc2n1 | inconclusive: 6.31 µM [inhibitor, full curve] | – |
| CN(Cc1ccc(N2CCCCC2)cc1)C(=O)CCC[C@H]1NC[C@@H]2C[C@H]1CN(Cc1ccccc1)C2 | active: 7.94 µM | – |
| CCOc1ccc(-c2cc(C(=O)O)c3ccccc3n2)cc1OCC | inconclusive: 31.6 µM [inhibitor, partial curve, poor fit] | – |
| Cc1nc2ccc(Cl)cc2cc1C(=O)N(C)C(C)c1ccccc1 (centres undefined) | inconclusive: 44.7 µM [inhibitor, partial curve] | – |
| O=C(Nc1ccc(Cl)c(S(=O)(=O)N2CCOCC2)c1)c1cc(=O)[nH]c2ccccc12 | inconclusive: 112 µM [inhibitor, single point] | – |
| CCNC(=O)c1ccc2c(c1)nc1n2CCCCC1 | inactive | – |
| CC(=O)NCCC(=O)Nc1cc(S(=O)(=O)Nc2ccc(Cl)cc2)ccc1N1CCCC1 | inconclusive: 56.2 µM [inhibitor, partial curve, poor fit] | – |
| CCOC(=O)c1cnc(SSc2ncc(C(=O)OCC)c(N)n2)nc1N | inconclusive: 5.01 µM [inhibitor, full curve, poor fit] | – |
